# Results published in patent US10085973B2, “Pharmaceutical composition containing a compound having a thrombopoietin receptor agonistic activity” (Shionogi & Co., Ltd., priority 2012, dated 2018).
# Test system: platelet count
# Test: PD model from phase 1 trial in healthy male adults (profile of platelet count)
# Format: in vivo, human
# Text: Using the plasma concentration of the drug and the platelet count data of 54 cases obtained in phase 1 trial carried out in Japan to healthy male adults, a PK/PD model was constructed that can describe pharmacokinetics and a profile of a platelet count. The PK model describing pharmacokinetics was a three-compartment model including three compartments in the absorption process in order to explain the delay in absorption. The PD model describing the relation between the plasma concentration and the profile of platelets counts was a model including five compartments in order to explain the maturation process of platelets. […] We assumed that the distributions of respective model parameters and the distributions of the residual errors of the models follow a log-normal distribution. Parameters were estimated by using the first order conditional estimation method with interaction in a software NONMEM (version VI, level 2.0).
smiles,measurement,value
"CCCCCCO[C@@H](C)c1cccc(-c2csc(NC(=O)c3cc(Cl)c(/C=C(\C)C(=O)O)c(Cl)c3)n2)c1OC [lusutrombopag, (E)-3-[2,6-dichloro-4-[4-[3-[(S)-1-hexyloxyethyl]-2-methoxyphenyl]-thiazol-2-ylcarbamoyl]-phenyl]-2-methylacrylic acid]","PLT0, mean",201000 µL⁻¹
same,"γ (feedback coefficient), mean",0.309

# Some results come without the dose or concentration used.
